{"source": "patent EP0011663A1", "about": "“Toilet and dental preparations and their use for oral and dental hygiene” (UNILEVER PLC, priority 1978, dated 1980)", "tested_on": "in vitro plaque", "experiment": "in vitro artificial plaque assay on saliva-coated aluminium plummets (Tests 1, 3, 4 and general statements)", "assay_type": "cell-based", "settings": "pH 4.1, read-out: % Reduction", "description": "An in vitro test was used in the Tests described herein for examining and effects of chemotherapeutic agents on plaque, and was carried out in accordance with the test reported in the Journal of Dental Research, Vol. 55, February 1976, page B286, by R T Evans, P J Baker, R A Coburn and R J Genco. An assay system for producing artificial plaque was used to screen antiplaque agents rapidly under conditions which simulated those found in the oral cavity.\nThe in vitro plaque was formed at 37°C on uniformly- sized aluminium plummets which were first coated with saliva. The plummets were then placed in a growth medium inoculated with clinical plaque samples. After seven hours the plummets were suspended overnight in a 25;0 saliva mixture. On the second day, the plummets were immersed in a 50% saliva - 50% test compound mixture for one minute, placed in the growth medium for seven hours, retreated with the test mixture and suspended in 25% saliva overnight. The plummets were treated again on the third day and incubated in the growth medium for three hcurs. The plaques were removed from the plummets by donication into approximately six millilitres of buffer and quantitated by optical density (O.D.) in a Beckman DU spectrophotometer at 570 nm.\nPositive controls were included to determine relative activity. Comparisons of antiplaque activity were then made within a given experiment. […]", "data": [{"smiles": "CCCCCCCCCCCCCCCC[n+]1ccccc1", "note": "[CPC, cetyl pyridinium chloride, reference compound]", "values": [{"measurement": "inhibition at 0.04 %", "value": 26.9, "unit": "%"}]}]}
